The values that follow come from PubChem BioAssay AID1347423 (Functional Genomics Laboratory (NCATS/FGL), 2020).

Screen size: about 52,000 sequences; about 210 (0.4%) were called active.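 Rule for the calls: active = gene whose silencing raises cell survival under the drug, median off-target-corrected z-score across its silencing RNAs 2 or more; inactive = the rest.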 The list shows a part of the results.

This experiment in a line: Resistance to Poly (ADP-Ribose) Polymerase inhibitor: Gene Identification via Genome-wide siRNA Screen. Conditions: mouse BRCA2 R2336H ES cells, olaparib, CellTiter-Glo viability; active compounds read high. Summed up: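 Mouse BRCA2 R2336H ES cells were reverse-transfected with siRNA (20 nM final), treated at 48 h with 500 nM olaparib, and read by CellTiter-Glo after 72 h. Scores: MAD-based z per siRNA, median per gene, seed off-target correction.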
For orientation: In ATP-based viability assays light output follows the ATP content of the culture.
“GGAUGCUGUUCGAGCUCAUTT against A830039B04Rik”: the z-score was inactive: -1.34.
For GGCAAGUUUCGCACCUCAGTT against Zfp219 the value was inactive: -0.26; for GGAUUAUGGAGUUUGAUAGTT against Mrgprb4, inactive: -0.226; for GGGUCAGUCCUUUUGAAUCTT against Rps15a, inactive: -0.291.
As for GCUUUGUCUACGUCUUUCATT against Gpnmb, the figure is inactive: 0.309; as for GCAUCUAUACACCGUCAGCTT against Znf341, inactive: 0.0571.
As for GGUUCAGAUGAAAUUUAGGTT against Ccnb1, the figure is inactive: -0.846; as for GCCUCCCUCCAACAUUUAUTT against Sall4, inactive: -0.954.
Regarding “GGGACGUGCAAUUGUCUGATT against 2210010L05Rik”, the z-score is inactive: 0.163.
As for GGAAAGAUCACUCUUGCAUTT against Pon1, the figure is inactive: 0.225; as for GUAUUCCAAUGUGGUGUUCTT against Txn1, inactive: -1.82; as for GGUACUAAAGAAAUAUCCCTT against Sirt7, inactive: 0.0535.
As for GCUACAAUGCAACGUGGCUTT against Slc2a4, the figure is inactive: 0.421; as for “GGAACUGGGUCUUCUUCAUTT against C330049O21Rik”, inactive: -0.716.
As for GGUGGAAAGAGAGAGCUACTT against Slc12a7, the figure is inactive: 0.0731.
Turning to GCUUCUGACCAUAUGUAGATT against Cd19, the z-score was inactive: -0.259.
For GGUCACCUCAAUAAACUCUTT against Myl7 the value was inactive: 0.915; for GGAAACUUUGCUGGUUAUATT against Dct, inactive: -1.09; for GGGCAACCCAAAGAUGCCATT against Pla2g2d, inactive: 0.00202.
Take GGCAGCUCACAUGAGCUUUTT against Hoxa4: the z-score is inactive: 0.688.
As for “GGGCAUGGAUUUUAUCCACTT against 4633402D15Rik”, the figure is inactive: -0.882.
For the sequence GAGGAGCUAUCAUCUCAGGTT against Mlr1, the z-score is inactive: 0.556.
Consider CGAGUGUGAGCUACAGCGUTT against Agrn, for which the z-score is inactive: 0.477.
For GGACUCACCCAUUCUUAUUTT against Mapre3 the value was inactive: 0.0711; for GGCCAUCAAACAGACCUACTT against Lrp5, inactive: 1.01.
As for CAUCUUUCAUCAAAUAACUTT against LOC432602, the figure is inactive: 0.458.
For GGAGAGUGAGAUCAUCUUUTT against Pde6a the value was inactive: 1.63.
Turning to GGCGCACAAAGCUGUUCUUTT against Zfp297b, the z-score is inactive: -0.878.
For “CCCAUAGCUGAGCCUAACUTT against D630005B22Rik” the value was inactive: 0.162; for GGUGGUGACCUUGGAUGUUTT against BC021614, inactive: -0.275; for UGGAUAUUGGCUGAUGAGCTT against Bckdhb, inactive: -0.667.
For GCACAACAUCGAAAUUGAGTT against Lrrn6a the value was inactive: 1.06.
For GGAAGAUUAUAUUGAGAGATT against Bnip3 the value was inactive: 0.323.
For GGGAAUGGAAACGGCCAUGTT against Nmt1, the z-score was inactive: 0.643.
As for CGGAAAUGUAUACAAAUCATT against Myt1l, the figure is inactive: 0.139.
For “CGAACUUGGUUUAAGCAAUTT against 4933434L15Rik” the value was inactive: 0.846; for GGCAAUAACUGCUUUAUCUTT against Olfr509, inactive: 1.6; for CGUGGACUUUAAGGAGCUGTT against Gdf7, inactive: 0.0153.
As for CCUAACUUACCUUCAUCUATT against Fbxo7, the z-score is inactive: 1.18.
Regarding GCUGUAACAAAGGAAAUAGTT against Nos2, the z-score was inactive: 0.356.
For GUUCCAUCUCCUUCCAGGATT against Cdc42ep2 the value was inactive: -1.35; for “GGUGACAGAGAUUUUCGAATT against D15Ertd781e”, inactive: 0.203; for GGCUACUCCUAUGACCUGATT against Psmb5, inactive: -2.41.
As for GGCACAAACCUCUUUUGUUTT against Rtkn, the figure is inactive: 2.12.
For GGGAUAACCAGUGAAUUUATT against Pcdhb15 the value was inactive: 0.407; for GCAGUGUCCCUAAAUGUUCTT against Adra1d, inactive: 0.159.
Take GGAUGUGGCCAUGGACUUUTT against Zfp286: the z-score is inactive: 0.829.
As for GCCUGAACUUCUUAGCAUGTT against Uchl3, the figure is inactive: -0.383; as for GCAGAAGUCGAGCUAUGUUTT against Zfp365, inactive: -1.5.
As for CCAAGAUGCGAGUGGAGAGTT against Rgs9, the figure is inactive: -0.438; as for GCCACACUUUAAUUUCGCATT against Ttc8, inactive: 0.0473; as for “GCCAUGUAGCACGUAACAGTT against 6230416J20Rik”, inactive: -1.21.
CCCAGUUGCUGUUCUUGACTT against Defb40: the z-score was inactive: 0.948.
For “GGACCCAGAGAAGAUCAAATT against 4930469P12Rik” the value was inactive: -0.236; for GGGAACAAGUUGAGCUACUTT against Ebp, inactive: -0.625.
As for GGUAUCUGUCCAUCCAAAUTT against Tcam1, the figure is inactive: -1.08; as for GGAUUGUGCAUUUCAUUGUTT against Mtmr6, inactive: -0.000463; as for GGAUGUCAAGGUGGCAUUATT against Olfr147, inactive: 0.525.
As for GGUCAACCUUUAAAAAACATT against Kifc2, the figure is inactive: 1.18; as for GGUUUUUCUGUCAAGUGCUTT against Gpr49, inactive: -0.0802; as for GGACAAAAUAAUGCUUUCUTT against Cnnm1, inactive: 1.3.
As to GCAAUGAAUUCGACCCAGATT against Ppp2r5e, the z-score is inactive: -1.57.
As to GGCUACAGCAAGAAGACUUTT against Ctsw, the z-score was inactive: -0.879.
For “GCCCUGAAAAACAUGCAACTT against B230339H12Rik” the value was inactive: 0.438.
As for GGAUGUUUUCCAGAAGAACTT against Map3k6, the figure is inactive: 2.04; as for GGAAAUCACAAACUUGUGGTT against Tm4sf12, inactive: 0.336.
As to GGCAAGUUUGUCCAGUGGATT against Phc3, the z-score is inactive: -0.0805.
As for GGAACUGACAGCUAUGAACTT against Atp6v1d, the figure is inactive: 0.35; as for GGGAAAAUUGAAGCUUGUATT against Tfam, inactive: -1.75; as for “GGAGGUACAUCAUCUACAATT against 6330416G13Rik”, inactive: -1.03.
As to GGGAAUCCGGAGAAAAUUATT against Aco1, the z-score is inactive: 0.62.
For CCCACUCUGUUCAGAGAGUTT against Wbscr22, the z-score was inactive: -1.04.
For “GGUGCCGACAGUAUUUACATT against A630028O16Rik”, the z-score was inactive: -0.503.
For GGAGACUGUAGACUUAAAGTT against Rnf25 the value was inactive: 0.463; for GCUUCACCACUGGACAAAGTT against Adh1, inactive: -0.956; for GGACGAGAAGCUCACUGUATT against Oaz2, inactive: 0.558.
Regarding GCUUCCUCUUAUCAUAUAATT against Rgs13, the z-score is inactive: -0.655.
As for CCUCGAGAGACUUUCAUGGTT against F2, the figure is inactive: -0.961; as for GCACUUUCAUGGAUAUAAGTT against Rab22a, inactive: 1.63.
As for GCUAAACACGCUGAAUAUUTT against Phf10, the figure is inactive: -1.03; as for GGCAAAAUGAUCUGCUUUCTT against Rnf36, inactive: -0.954; as for GGACAAGCACCAGGAUUUUTT against Cyct, inactive: -0.819.
Take GGGUUUUAAUUAUACUGCGTT against Ror2: the z-score is inactive: 0.677.
For GCUAACAUACAUCAUCAAATT against Stx5a the value was inactive: 0.895.
For GCUCAAAAAACCGAAAUGATT against Pdcd1lg1 the value was inactive: -0.271; for GCCCAUUCUGUAGGUGCAUTT against Nrg4, inactive: 1.38; for “GGGUUAGUCUGUUAGAUCATT against 1810032O08Rik”, inactive: 0.202.
For GGAGAAGAAGGGAAAGCAUTT against Tub the value was inactive: -1.61; for GGACCAAGGAUGUUCGCUUTT against Cnr2, inactive: 1.55; for GCUGGAGAACCUCCCUAAATT against Mrps33, inactive: -0.765.
As for “GGUGGUGGUGUUCCUCAAGTT against 2900070E19Rik”, the z-score was inactive: -0.261.
For GGACCACCUAUGGACUACATT against Rbm6 the value was inactive: 0.0705; for GGUUGGAAAGCAUUUUUUATT against Commd2, inactive: 0.497; for GGGUCAAAGCUCAACGAAATT against Il2rb, inactive: 1.02.
For GGUUCAUCAAGAAGUUAGATT against Pip5k1c the value was inactive: -0.935; for GGACAUUAAGAGUGGAAAGTT against Nucb1, inactive: -0.527.
With GGACCGAUUAAGGAAGGAATT against Ppp1r1a, the z-score is inactive: -0.815.
For “GGAGAGCUAGCUUGACAUGTT against 6330404A07Rik” the value was inactive: 0.401; for GGGAGGAAGAAGAAGGUCATT against Atp1b4, inactive: -0.71.
As for GGACGUGUUUGGGAUUGUUTT against Csad, the figure is inactive: 0.0165; as for CGAAUAUCAUCUCACACUCTT against Olfr875, inactive: -0.285; as for GGUAGUUGUCCUCAUGUGCTT against Scn2b, inactive: 1.72.
For GCGGCCAUUACCAAAAUUGTT against Olfr520 the value was inactive: 0.138; for “GCAAAGGGUUCCUGUACUUTT against C330021A05Rik”, inactive: 0.814.
In the case of GGGAGACAAUCGUUUUAGCTT against Tgfbi, the z-score is inactive: 0.624.
